Test results from paper PMC11183067.
These are yes or no findings as the source states them, for the method shown. For some assays here: Binding seen in cells or lysates may run through a third protein. Some results given as binding are weak or reduced against the parent protein; the word gives no strength.

By UniProt entry, the sequences of proteins in these tests, tags left out. Where a name states a change or a piece, a line headed by the entry shows the natural chain unless it says otherwise. Chains listed by the source or under a name are the forms on record and can include a tag or linker.
UniProt P46527: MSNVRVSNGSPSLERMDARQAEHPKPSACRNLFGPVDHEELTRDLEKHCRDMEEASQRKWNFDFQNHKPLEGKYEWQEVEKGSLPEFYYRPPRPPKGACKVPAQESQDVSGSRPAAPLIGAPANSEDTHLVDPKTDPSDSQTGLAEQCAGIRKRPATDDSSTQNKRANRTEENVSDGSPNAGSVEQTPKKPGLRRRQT
GFP-p27CK-T157D/T198D (P46527, form named): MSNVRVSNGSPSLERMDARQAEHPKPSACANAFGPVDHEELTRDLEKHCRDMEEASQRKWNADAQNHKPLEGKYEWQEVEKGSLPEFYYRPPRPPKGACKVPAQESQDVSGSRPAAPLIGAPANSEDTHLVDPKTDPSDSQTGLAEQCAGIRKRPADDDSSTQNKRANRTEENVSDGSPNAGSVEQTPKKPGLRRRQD
UniProt P05412: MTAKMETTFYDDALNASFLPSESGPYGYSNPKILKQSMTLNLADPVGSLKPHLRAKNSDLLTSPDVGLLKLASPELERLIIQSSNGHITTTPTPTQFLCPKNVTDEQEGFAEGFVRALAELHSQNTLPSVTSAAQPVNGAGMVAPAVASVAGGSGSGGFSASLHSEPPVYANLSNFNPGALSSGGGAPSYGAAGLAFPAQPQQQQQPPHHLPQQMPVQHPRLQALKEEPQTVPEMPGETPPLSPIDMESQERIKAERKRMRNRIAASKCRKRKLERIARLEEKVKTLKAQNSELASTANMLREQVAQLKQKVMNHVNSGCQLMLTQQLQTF
UniProt P40763: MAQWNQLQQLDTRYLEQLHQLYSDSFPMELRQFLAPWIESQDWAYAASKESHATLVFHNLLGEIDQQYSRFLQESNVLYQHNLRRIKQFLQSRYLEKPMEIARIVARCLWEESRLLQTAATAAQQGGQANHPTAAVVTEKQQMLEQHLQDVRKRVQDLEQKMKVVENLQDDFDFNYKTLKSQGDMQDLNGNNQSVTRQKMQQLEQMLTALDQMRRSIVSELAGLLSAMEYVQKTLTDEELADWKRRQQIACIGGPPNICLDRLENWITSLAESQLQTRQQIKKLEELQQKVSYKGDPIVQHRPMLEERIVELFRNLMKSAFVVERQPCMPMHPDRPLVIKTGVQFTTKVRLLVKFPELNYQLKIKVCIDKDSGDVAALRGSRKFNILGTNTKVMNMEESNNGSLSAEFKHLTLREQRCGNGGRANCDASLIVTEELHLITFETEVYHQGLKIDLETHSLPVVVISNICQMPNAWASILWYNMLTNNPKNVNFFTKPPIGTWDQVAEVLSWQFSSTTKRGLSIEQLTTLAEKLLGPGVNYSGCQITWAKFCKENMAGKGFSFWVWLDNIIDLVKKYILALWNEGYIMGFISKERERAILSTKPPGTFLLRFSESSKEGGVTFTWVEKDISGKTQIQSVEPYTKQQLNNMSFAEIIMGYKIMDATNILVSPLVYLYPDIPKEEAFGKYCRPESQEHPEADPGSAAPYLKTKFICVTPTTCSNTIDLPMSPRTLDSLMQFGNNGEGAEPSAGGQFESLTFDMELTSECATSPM
UniProt Q13547: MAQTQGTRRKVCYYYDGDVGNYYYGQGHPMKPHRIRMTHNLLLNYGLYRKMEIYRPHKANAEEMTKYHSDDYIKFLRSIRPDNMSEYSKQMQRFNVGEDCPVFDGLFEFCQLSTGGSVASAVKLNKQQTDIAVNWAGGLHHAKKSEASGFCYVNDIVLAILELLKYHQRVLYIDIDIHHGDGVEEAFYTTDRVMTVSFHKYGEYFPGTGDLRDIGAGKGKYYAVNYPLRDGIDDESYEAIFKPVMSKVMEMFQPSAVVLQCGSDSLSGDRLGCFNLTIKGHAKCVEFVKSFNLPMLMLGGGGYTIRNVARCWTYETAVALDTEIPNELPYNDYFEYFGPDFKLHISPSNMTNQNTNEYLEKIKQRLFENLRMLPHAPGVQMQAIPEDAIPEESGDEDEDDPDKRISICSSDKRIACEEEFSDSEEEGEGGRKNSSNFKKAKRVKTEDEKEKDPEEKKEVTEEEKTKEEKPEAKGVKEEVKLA
UniProt Q92793: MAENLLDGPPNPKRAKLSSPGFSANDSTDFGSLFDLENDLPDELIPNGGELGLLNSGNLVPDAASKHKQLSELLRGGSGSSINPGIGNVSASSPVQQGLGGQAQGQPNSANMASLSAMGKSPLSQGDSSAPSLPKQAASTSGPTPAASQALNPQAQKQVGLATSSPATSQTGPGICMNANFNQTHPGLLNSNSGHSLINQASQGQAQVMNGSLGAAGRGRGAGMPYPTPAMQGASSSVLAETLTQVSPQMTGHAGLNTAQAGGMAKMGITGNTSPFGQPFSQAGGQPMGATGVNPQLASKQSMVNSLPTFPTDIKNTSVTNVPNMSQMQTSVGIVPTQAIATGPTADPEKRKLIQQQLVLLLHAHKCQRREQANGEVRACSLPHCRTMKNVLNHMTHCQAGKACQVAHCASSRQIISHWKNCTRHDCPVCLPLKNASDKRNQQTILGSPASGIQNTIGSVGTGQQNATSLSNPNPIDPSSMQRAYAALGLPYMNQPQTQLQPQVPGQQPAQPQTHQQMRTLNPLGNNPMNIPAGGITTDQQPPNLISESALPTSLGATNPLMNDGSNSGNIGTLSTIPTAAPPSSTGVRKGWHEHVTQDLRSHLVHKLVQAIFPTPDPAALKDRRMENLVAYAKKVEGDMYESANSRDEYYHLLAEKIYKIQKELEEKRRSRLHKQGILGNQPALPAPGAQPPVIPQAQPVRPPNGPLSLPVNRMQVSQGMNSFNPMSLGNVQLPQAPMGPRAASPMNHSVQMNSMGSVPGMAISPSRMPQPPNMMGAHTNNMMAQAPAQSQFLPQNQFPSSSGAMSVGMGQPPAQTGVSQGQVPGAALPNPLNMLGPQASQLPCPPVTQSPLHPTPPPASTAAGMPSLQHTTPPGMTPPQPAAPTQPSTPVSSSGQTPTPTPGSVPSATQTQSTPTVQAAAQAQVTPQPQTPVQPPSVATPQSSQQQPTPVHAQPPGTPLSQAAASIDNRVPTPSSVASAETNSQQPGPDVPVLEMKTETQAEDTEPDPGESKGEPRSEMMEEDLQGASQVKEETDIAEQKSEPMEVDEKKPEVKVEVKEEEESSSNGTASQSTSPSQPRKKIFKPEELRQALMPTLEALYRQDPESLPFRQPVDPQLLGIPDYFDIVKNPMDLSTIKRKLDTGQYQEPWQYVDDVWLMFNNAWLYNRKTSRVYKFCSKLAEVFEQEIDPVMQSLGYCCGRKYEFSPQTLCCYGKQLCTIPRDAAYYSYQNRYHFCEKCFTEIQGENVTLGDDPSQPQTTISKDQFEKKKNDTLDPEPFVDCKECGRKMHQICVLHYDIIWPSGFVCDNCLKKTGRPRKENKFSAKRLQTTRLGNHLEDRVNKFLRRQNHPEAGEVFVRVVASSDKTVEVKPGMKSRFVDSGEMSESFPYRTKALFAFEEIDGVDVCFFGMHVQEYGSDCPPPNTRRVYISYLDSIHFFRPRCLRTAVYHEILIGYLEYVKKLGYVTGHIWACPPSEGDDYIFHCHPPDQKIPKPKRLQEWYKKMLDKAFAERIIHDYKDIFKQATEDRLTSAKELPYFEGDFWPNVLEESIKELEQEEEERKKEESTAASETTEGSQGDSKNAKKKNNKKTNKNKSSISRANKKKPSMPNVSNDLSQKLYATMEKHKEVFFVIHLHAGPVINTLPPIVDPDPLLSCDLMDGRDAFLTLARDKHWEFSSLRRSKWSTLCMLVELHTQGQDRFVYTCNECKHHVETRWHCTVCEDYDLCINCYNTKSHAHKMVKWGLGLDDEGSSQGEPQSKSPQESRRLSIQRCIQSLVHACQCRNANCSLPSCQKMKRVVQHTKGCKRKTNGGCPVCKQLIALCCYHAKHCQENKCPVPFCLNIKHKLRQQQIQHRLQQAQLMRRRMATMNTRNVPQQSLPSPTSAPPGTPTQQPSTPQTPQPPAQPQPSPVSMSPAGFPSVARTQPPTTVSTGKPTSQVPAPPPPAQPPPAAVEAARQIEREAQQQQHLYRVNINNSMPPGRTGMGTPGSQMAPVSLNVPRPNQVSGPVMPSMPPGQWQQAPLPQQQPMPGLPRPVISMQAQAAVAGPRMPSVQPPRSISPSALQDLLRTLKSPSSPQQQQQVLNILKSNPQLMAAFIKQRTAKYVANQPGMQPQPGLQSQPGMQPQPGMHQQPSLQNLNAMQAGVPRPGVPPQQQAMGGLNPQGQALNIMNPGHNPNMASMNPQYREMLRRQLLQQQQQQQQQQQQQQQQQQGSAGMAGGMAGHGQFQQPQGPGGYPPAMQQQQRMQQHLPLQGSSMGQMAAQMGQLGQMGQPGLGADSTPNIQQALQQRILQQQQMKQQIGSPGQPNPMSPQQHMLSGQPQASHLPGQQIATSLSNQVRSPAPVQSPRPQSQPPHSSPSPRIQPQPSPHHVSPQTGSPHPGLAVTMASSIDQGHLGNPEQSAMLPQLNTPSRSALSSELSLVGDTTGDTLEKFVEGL
UniProt P25490: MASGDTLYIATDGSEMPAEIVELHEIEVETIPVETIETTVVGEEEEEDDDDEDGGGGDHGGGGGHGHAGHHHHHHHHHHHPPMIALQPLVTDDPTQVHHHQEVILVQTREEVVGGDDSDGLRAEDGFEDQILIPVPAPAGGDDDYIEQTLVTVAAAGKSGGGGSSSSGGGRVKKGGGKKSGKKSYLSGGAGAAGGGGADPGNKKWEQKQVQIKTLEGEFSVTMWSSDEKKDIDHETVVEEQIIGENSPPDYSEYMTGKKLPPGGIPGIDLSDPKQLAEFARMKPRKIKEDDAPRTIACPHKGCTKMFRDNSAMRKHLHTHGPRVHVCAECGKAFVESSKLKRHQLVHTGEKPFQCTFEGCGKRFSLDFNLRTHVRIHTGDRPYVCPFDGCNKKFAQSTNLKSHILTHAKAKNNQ

Assays:
[1] = target: GFP-p27CK-T157D/T198D (human) (UniProt P46527); experiment: co-IP; cells lysed with Cell Lytic M; 1 mg lysate incubated overnight at 4 °C with 2 micrograms p27 antibody (D69C12) or control IgG; collected on protein A/G plus agarose; immunoblot; 231, 231DD and 1833 cells
[2] = target: p27 (cellular p27 of MDA-MB-231 parental cells) (human (endogenous in MDA-MB-231)) (UniProt P46527); experiment: as above
[3] = target: C-terminally phosphorylated p27pT157pT198 (endogenous, MDA-MB-231-1833 cells) (human (endogenous in MDA-MB-231-1833)) (UniProt P46527); experiment: as above
[4] = target: cJun (human (endogenous in MDA-MB-231 lines)) (UniProt P05412); experiment: ChIP-Western; chromatin cross-linked with 1% formaldehyde and sonicated, precipitated with cJun antibody, Western blot of the precipitate; cells not named

Row | Substance | binding [1] | binding [2] | binding [3] | binding [4]
1 | signal transducer and activator of transcription 3 (STAT3) (from UniProt P40763 1-770) | binds | binds | binds | –
2 | cJun (from UniProt P05412 1-331) | binds | binds | binds | –
3 | HDAC1 (from UniProt Q13547 1-482) | – | – | – | binds
4 | CBP (from UniProt Q92793 1-2442) | binds | binds | binds | –
5 | YY1 (from UniProt P25490 1-414) | – | – | – | binds
